Results: publication doi:10.1101/2021.03.26.437243
Results are given in words; binding and its absence hold for the method and conditions named. Binding seen in cells or lysates may run through a third protein. Some binding calls cover weakened binding; strength is not graded here. Sequences can lack the tags named with a protein.

Chains of the proteins cited; added tags and fusions are not shown.
UniProt P60953: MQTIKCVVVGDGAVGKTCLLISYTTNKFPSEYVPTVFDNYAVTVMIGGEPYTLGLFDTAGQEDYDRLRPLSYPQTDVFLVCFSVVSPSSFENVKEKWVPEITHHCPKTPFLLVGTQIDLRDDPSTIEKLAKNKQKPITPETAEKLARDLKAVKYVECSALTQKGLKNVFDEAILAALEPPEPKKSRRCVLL
UniProt Q8TEW0: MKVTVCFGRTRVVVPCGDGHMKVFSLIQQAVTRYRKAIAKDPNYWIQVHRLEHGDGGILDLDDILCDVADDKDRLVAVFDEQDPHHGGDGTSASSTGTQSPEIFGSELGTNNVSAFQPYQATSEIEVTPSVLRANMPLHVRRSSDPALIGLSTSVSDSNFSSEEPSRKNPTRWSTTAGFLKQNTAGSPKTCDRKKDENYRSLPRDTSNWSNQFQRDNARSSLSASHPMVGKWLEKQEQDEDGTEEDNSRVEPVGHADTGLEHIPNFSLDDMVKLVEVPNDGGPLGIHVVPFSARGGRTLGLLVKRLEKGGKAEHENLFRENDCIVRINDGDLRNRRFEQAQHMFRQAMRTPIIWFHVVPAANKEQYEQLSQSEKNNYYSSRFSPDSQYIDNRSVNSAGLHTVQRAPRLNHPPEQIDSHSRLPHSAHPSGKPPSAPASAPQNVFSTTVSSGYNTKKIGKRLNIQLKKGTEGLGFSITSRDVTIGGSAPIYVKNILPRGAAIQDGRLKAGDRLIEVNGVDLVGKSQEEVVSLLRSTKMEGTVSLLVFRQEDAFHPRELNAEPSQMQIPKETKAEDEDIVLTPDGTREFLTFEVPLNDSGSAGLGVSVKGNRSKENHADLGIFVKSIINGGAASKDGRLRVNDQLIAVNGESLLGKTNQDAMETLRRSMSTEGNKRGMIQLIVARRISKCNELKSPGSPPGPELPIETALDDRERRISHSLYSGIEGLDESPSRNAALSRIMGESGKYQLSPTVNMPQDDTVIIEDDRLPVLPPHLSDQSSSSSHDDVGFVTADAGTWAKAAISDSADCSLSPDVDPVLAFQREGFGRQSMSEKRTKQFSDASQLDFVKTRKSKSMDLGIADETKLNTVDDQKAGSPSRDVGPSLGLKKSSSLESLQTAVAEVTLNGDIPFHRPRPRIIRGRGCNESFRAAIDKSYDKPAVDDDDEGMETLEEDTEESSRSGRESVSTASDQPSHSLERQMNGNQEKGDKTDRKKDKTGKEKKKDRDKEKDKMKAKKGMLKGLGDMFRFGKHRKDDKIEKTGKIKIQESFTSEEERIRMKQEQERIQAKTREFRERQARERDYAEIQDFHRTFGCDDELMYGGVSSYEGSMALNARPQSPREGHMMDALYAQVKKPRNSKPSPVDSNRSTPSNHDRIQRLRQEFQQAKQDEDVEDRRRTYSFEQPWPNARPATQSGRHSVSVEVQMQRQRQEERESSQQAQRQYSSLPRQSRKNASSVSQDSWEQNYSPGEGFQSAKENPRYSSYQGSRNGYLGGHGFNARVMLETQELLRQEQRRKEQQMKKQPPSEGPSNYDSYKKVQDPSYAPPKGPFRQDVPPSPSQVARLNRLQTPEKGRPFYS

Biological target: T1, GST-tagged TIPE2 (full-length murine TIPE2) (murine) (UniProt Q9D8Y7)
T1 sequence: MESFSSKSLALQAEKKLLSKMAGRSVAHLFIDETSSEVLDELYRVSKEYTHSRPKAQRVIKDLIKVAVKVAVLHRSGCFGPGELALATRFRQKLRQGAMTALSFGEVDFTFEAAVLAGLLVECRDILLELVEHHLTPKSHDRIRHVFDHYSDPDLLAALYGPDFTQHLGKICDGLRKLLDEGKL
Experiment: pull-down

| Substance | binding |
| --- | --- |
| Myc-tagged Cdc42 (wild type) (from UniProt P60953 1-191) | binds |
| Par3 (from UniProt Q8TEW0 1-1356) | binds |
